“And” between values parts separate entries of the source, which are not always exact repeats. Equal entries are not always repeated.

Data set [1] relates to Nicotiana benthamiana leaves. Description: Transient co-expression of biosynthetic genes in N. benthamiana leaves, metabolite ion abundance by LC-MS.
For another data set, the system named is PtCAL-1a/PtCAL-2a. Description: In vitro reactions with apoplastic PtCAL-1a/PtCAL-2a (formation of 9, decarboxylation of 3, Zn chelator). Type of data set: biochemical. The note with it: for ratio of 4 ion abundance (m/z 142.1226) to that of 3 (m/z 186.1125): GFP +3; for ion abundance of 9 (m/z 164.1434) over time: GFP, +3, +8. The text has this: The three CAL proteins identified in this study have predicted N-terminal signal peptides, which were identified using the TargetP-2.0 server (https://services.healthtech.dtu.dk/service.php?TargetP-2.0)[58]. […] To assess this possibility, CAL genes with or without C-terminal 6xHis tags were transiently expressed in N. benthamiana, as described above. Each CAL gene was expressed individually; also, PtCAL-1a and PtCAL-2a were transiently co-expressed in the same leaf because we had found them to cofunction in Lycopodium alkaloid biosynthesis. At 4 days after Agrobacterium infiltration, apoplast protein extracts were isolated using the infiltration–centrifugation method, much as previously described. Two leaves per reaction were excised from the plant and submerged in ice-cold apoplast extraction buffer (100 mM MES, 300 mM NaCl, pH 5.5) in an open-capped 50 ml Falcon tube and these tubes were placed in a plastic vacuum chamber attached to a Welch Model 2025 vacuum pump. The chamber was brought down to full vacuum and after 2 min at this pressure, the vacuum was slowly released to allow for buffer to infiltrate the leaf apoplastic space. Buffer-infiltrated leaves were carefully removed from the Falcon tubes, blotted dry with paper towels and were then rolled into Parafilm and placed in a plungerless 5 ml plastic syringe. The syringe was placed in a 15 ml Falcon tube and this was then centrifuged at 1,000g and 4 °C for 10 min to collect apoplast extract. The resulting extract was centrifuged at 10,000g and 4 °C for 15 min to pellet any larger cellular debris and the supernatant was concentrated using an Amicon Ultra-4 Centrifugal Filter Unit (10 kDA MWCO, MilliporeSigma UFC501024). Protein concentrations were measured using the BIO-RAD Protein Assay or Bradford assay (Abcam 119216) and adjusted with apoplast extraction buffer to a final concentration between 0.5 and 1.5 mg ml^−1. Aliquots of the extracts were snap frozen in liquid nitrogen and stored at −80 °C.
Reactions with CAL-enriched apoplast were routinely performed in low-pH potassium phosphate buffer (50 mM potassium phosphate, 100 mM NaCl, pH 5.9) at a volume of 20 µl. For PtCAL-1a/PtCAL-2a, these reactions contained approximately 1.4 µg of apoplast protein for each CAL (final concentration of 0.07 µg µl^−1). Control reactions used apoplast from leaves expressing only one CAL or with apoplast generated from GFP-expression N. benthamiana leaves. The requisite substrates for this reaction were generated through the activities of in vitro PtPIKS-1 and PtCYP782C1 enzyme reactions. […]. To generate 3 and 4 as potential substrates, 1 µg of previously purified PtPIKS-1 enzyme[23] and 150 µM 1 and 300 µM malonyl-CoA were added directly to the CAL reaction mixtures. After thorough mixing, reactions were incubated at room temperature. An alternative route for producing 3 and 4 independently of thioester intermediates was achieved by mixing stocks of 1 (10 mM in water) and 2 (10 mM in water; always prepared fresh to minimize compound decomposition) in equal proportion, followed by incubation at room temp for 1–2 h, as these two substrates can non-enzymatically condense to yield 3 (which can spontaneously decarboxylate to produce 4). A 2 µl aliquot of this mixture was then added as a component of the PtCAL-1a/PtCAL-2a enzyme reaction (20 µl total reaction volume) in addition to the PtCYP782C1 microsomal reaction mixture. After predesignated incubation times, reactions were quenched by diluting tenfold into ACN with 0.1% formic acid.
To evaluate the potential decarboxylation of β-keto acid substrates by PtCAL-1/PtCAL-2 and PtCAL-3, only 3 or 2, respectively, were added as substrate. PtCAL-1/PtCAL-2 reactions were quenched by diluting aliquots tenfold into ACN with 0.1% formic acid and were subsequently analysed through HILIC LC–MS. PtCAL-3 reactions were quenched by mixing aliquots with an equal volume of water with 0.2% formic acid and were then analysed through C18 LC–MS. […]

As to `CC(=O)C[C@H]1CCCCN1C(C)=O` [NAc-(R)-4], the “ion abundance of NAc-(R)-4 (m/z 184.1332)” value in data set [1] (pathway to 8) was 1360000 and 1300000 and 1260000; in data set [1] (pathway to 8 +CAL-1a/CAL-2a), 1400000 and 1330000 and 995000.
Take `C/C=C/C1=NCCCC1` [compound 8]: the “ion abundance of 8 (m/z 124.1121)” value is 9638249 and 12521473 and 7967225 in data set [1] (pathway to 8); 1222800 and 1037676 and 1210696 in data set [1] (pathway to 8 +CAL-1a/CAL-2a).
As for `CC(=O)C[C@@H]1CCCCN1C(C)=O` [NAc-(S)-4], the “ion abundance of NAc-(S)-4 (m/z 184.1332)” value in data set [1] (pathway to 8) was 1410000 and 1300000 and 1220000; in data set [1] (pathway to 8 +CAL-1a/CAL-2a), 1180000 and 902000 and 745000.
Turning to `O=C(O)CC(=O)CC1CCCCN1` (centres unmarked) [compound 3, 4-(2-piperidyl)acetoacetic acid], the “ion abundance of 3 (m/z 186.1125)” value in data set [1] (pathway to 8) is 9410896 and 8730072 and 10333652. The “ratio of 4 ion abundance (m/z 142.1226) to that of 3 (m/z 186.1125)” value with PtCAL-1a/PtCAL-2a (0.25 hrs (ED 4g)) was 43.1035 and 48.8982 and 60.4489; in the data set with PtCAL-1a/PtCAL-2a (0.5 hrs (ED 4g)) it was 50.5262 and 67.5812 and 54.1147; with PtCAL-1a/PtCAL-2a (1 hrs (ED 4g)), 56.742 and 49.4225 and 48.9637; in the data set on PtCAL-1a/PtCAL-2a (2 hrs (ED 4g)) it was 51.4101 and 43.0157 and 54.2008.
As to `CC1CC2=NCCCC2=C(CC2CCCCN2)C1` (centres unmarked) [compound 9], the “ion abundance of 9 (m/z 164.1434)” value in data set [1] (pathway to 8) is 0; in data set [1] (pathway to 8 +CAL-1a/CAL-2a), 8024968 and 9400279 and 8191081. Besides, the “ion abundance of 9 (m/z 164.1434) over time” value (from here on “ion abundance … over time”) in the data set with PtCAL-1a/PtCAL-2a (0.17 hrs), in the data set with PtCAL-1a/PtCAL-2a (0.50 hrs), in the data set with PtCAL-1a/PtCAL-2a (1.00 hrs), with PtCAL-1a/PtCAL-2a (2.00 hrs), in the data set with PtCAL-1a/PtCAL-2a (4.00 hrs) and in the data set with PtCAL-1a/PtCAL-2a (8.00 hrs) was 0 each time. Besides, the “ion abundance … over time” value in the data set with PtCAL-1a/PtCAL-2a (20.00 hrs) came to 0; in the data set on PtCAL-1a/PtCAL-2a (24.00 hrs), 0; in the data set with PtCAL-1a/PtCAL-2a (+PtCAL-3, 0.17 hrs), 0; with PtCAL-1a/PtCAL-2a (+PtCAL-3, 0.50 hrs) it was 0; in the data set with PtCAL-1a/PtCAL-2a (+PtCAL-3, 1.00 hrs) it was 0; in the data set with PtCAL-1a/PtCAL-2a (+PtCAL-3, 2.00 hrs) it was 0. Further, the “ion abundance … over time” value in the data set with PtCAL-1a/PtCAL-2a (+PtCAL-3, 4.00 hrs) is reported as 0; with PtCAL-1a/PtCAL-2a (+PtCAL-3, 8.00 hrs) it was 0; with PtCAL-1a/PtCAL-2a (+PtCAL-3, 20.00 hrs), 0; in the data set on PtCAL-1a/PtCAL-2a (+PtCAL-3, 24.00 hrs), 0.

Values taken from PMC10700139 (Nature, 2023).
